Experimental data published in paper PMC8927159.
No constants are given. Whether binding was seen depends on the method and setting. In cells and extracts the contact can be indirect. These calls come from enrichment with a bait or labelling near it, and not all partners need be listed.

Protein sequences, listed by entry. Tags and fused reporters are not part of them.
UniProt O75494: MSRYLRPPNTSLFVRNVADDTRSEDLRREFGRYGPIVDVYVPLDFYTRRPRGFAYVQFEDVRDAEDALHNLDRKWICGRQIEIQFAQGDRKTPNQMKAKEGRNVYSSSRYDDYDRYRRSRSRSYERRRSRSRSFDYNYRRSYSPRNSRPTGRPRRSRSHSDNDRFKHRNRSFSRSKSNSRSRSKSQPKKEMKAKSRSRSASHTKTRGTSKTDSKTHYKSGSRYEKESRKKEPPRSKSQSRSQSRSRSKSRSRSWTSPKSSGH
UniProt Q15717: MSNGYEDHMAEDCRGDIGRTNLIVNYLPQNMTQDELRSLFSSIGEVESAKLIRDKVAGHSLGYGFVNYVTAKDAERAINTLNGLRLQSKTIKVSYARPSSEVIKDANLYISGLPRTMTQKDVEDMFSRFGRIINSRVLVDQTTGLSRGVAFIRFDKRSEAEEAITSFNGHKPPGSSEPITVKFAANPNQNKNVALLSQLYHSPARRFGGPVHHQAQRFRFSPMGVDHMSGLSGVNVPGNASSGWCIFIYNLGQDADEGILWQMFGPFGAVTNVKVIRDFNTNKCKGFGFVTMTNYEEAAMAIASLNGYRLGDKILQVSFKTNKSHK
UniProt P61326: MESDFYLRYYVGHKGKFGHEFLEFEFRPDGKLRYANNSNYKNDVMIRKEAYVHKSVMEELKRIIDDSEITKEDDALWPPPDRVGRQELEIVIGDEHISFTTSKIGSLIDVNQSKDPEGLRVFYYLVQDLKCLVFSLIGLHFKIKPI
UniProt Q96A72: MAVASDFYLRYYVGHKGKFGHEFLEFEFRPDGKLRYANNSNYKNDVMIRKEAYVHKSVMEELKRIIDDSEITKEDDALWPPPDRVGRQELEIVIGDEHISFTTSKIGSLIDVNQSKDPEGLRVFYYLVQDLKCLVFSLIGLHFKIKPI
UniProt P11940: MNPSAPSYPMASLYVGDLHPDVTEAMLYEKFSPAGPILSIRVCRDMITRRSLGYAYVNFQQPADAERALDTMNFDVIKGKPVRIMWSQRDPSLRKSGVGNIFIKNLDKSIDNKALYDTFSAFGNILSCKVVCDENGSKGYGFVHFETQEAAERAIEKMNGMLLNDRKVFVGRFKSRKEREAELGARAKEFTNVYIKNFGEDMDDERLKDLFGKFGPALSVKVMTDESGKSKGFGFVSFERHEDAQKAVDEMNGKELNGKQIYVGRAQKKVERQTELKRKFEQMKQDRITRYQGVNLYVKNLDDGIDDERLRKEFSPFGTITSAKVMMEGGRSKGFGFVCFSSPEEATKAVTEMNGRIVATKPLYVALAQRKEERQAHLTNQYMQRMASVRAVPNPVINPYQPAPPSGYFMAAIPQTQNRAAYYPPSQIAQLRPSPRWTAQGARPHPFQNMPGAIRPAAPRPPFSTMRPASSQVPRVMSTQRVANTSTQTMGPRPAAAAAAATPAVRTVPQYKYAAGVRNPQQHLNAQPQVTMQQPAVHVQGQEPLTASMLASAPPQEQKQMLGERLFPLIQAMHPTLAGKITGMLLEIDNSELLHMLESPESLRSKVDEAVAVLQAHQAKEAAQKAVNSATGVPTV

Molecular target: Serine/arginine-rich splicing factor 10 (SRSF10) (human (endogenous in Hep3B and HCCLM3)) (UniProt O75494)
Experiment: affinity purification with mass spectrometry; SILAC; Hep3B shScramble (heavy) against shSRSF10 (light) lysates with nuclease; IP with two commercial anti-SRSF10 antibodies on Protein G Dynabeads, 4 h at 4 °C; cut-off H/L ratio >1.7

binding, binds:
ELAVL1 (from UniProt Q15717 1-326)
MAGOH (from UniProt P61326 1-146)
MAGOHB (from UniProt Q96A72 1-148)
PABPC1 (from UniProt P11940 1-636)
